Values from PubChem BioAssay AID652243 (Drosophila RNAi Screening Center, 2013).
Aim: 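Knock-downs that decrease or increase androgen receptor reporter signal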 (primary screen). Cells: Drosophila S2R+ cells. Knock-down reagent: long dsRNA against Drosophila genes. Timing: 72 h (48 h, then 24 h hormone). Conditions: synthetic androgen R1881 at 10 nM for 24 h. Measured: 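Per-well raw luminescence of the androgen-driven firefly reporter and of the Renilla control, two replicates each, without normalisation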. Direction: firefly reporter light: higher = more light from androgen-responsive reporter; Renilla control light: higher = more constitutive control signal (cell number, transfection). Hit rule: 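Hit when the log firefly-to-Renilla ratio dropped or increased by a fixed fold versus the mean of GFP or LacZ controls across duplicate plates; lowering cut given as 1.5 and as 3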. Calls: active = hit: reporter lowered or raised; inactive = no hit.
The deposit covers about 24,000 reagents; shown is a random part of those that have a named target and a result. Of all reagents, 246 (1%) were called active. 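Plates not normalised; calls are printed but the firefly/Renilla ratio behind them is not deposited; fold cut for lowering reported inconsistently.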 Raw values are not corrected between plates. Reagent sequences are not shown. The record does not give: the amount of reagent.

| Target gene | dsRNA | firefly reporter light, replicate 1 | firefly reporter light, replicate 2 | Renilla control light, replicate 1 | Renilla control light, replicate 2 | Outcome |
| --- | --- | --- | --- | --- | --- | --- |
| Not1 | DRSC06787 | 2.85e5 | 2.21e5 | 1.87e6 | 1.66e6 | inactive |
| Not1 | DRSC06794 | 9.82e5 | 8.05e5 | 1.17e6 | 1.22e6 | inactive |
| Stip1 (Stress induced phosphoprotein 1) | DRSC00756 | 7.63e5 | 4.45e5 | 2.25e6 | 1.25e6 | inactive |
| TfAP-2 (Transcription factor AP-2) | DRSC11601 | 2.76e5 | 2.97e5 | 2.23e6 | 2.46e6 | inactive |
| CG30340 | DRSC05167 | 2.85e5 | 3.05e5 | 6.73e5 | 6.55e5 | inactive |
| CG17211 | DRSC02587 | 1.95e5 | 2.47e5 | 1.03e6 | 1.35e6 | inactive |
| GramD1B (GRAM domain containing 1B) | DRSC00426 | 1.40e5 | 1.22e5 | 9.20e5 | 7.25e5 | inactive |
| GramD1B (GRAM domain containing 1B) | DRSC00591 | 6.66e5 | 6.54e5 | 8.99e5 | 8.66e5 | inactive |
| GramD1B (GRAM domain containing 1B) | DRSC23885 | 1.13e6 | 8.30e5 | 8.86e5 | 8.52e5 | inactive |
| GramD1B (GRAM domain containing 1B) | DRSC28705 | 2.83e5 | 2.67e5 | 1.11e6 | 1.06e6 | inactive |
| D1 (D1 chromosomal protein) | DRSC16638 | 35951 | 65657 | 4.07e5 | 6.16e5 | inactive |
| CG17712 | DRSC00266 | 8.65e5 | 1.01e6 | 2.43e6 | 1.95e6 | inactive |
| Or65a (Odorant receptor 65a) | DRSC08808 | 1.64e5 | 1.96e5 | 4.93e5 | 4.52e5 | inactive |
| Lamtor3 (Late endosomal/lysosomal adaptor, MAPK and MTOR activator 3) | DRSC02815 | 2.21e5 | 2.26e5 | 1.38e6 | 2.13e6 | inactive |
| CG15260 | DRSC01977 | 1.55e5 | 1.68e5 | 1.68e6 | 2.14e6 | inactive |
| SmE (Small ribonucleoprotein particle protein SmE) | DRSC02680 | 2.15e5 | 2.25e5 | 1.98e6 | 1.39e6 | inactive |
| Pp2C1 (Protein phosphatase 2C) | DRSC23287 | 1.06e6 | 9.99e5 | 1.22e6 | 1.25e6 | inactive |
| Pp2C1 (Protein phosphatase 2C) | DRSC28091 | 4.95e5 | 6.24e5 | 1.54e6 | 1.45e6 | inactive |
| Pp2C1 (Protein phosphatase 2C) | DRSC36737 | – | – | – | – | inactive |
| CG18281 | DRSC11742 | 69061 | 58842 | 4.73e5 | 4.59e5 | inactive |
| nAChRalpha5 (nicotinic Acetylcholine Receptor alpha5) | DRSC01946 | 3.54e5 | 3.07e5 | 2.56e6 | 1.89e6 | inactive |
| nAChRalpha5 (nicotinic Acetylcholine Receptor alpha5) | DRSC01947 | 2.70e5 | 4.58e5 | 4.86e5 | 7.46e5 | inactive |
| nAChRalpha5 (nicotinic Acetylcholine Receptor alpha5) | DRSC22785 | 5.50e5 | 7.55e5 | 1.11e5 | 1.53e5 | inactive |
| nAChRalpha5 (nicotinic Acetylcholine Receptor alpha5) | DRSC29085 | 4.47e5 | 4.55e5 | 9.11e5 | 7.16e5 | inactive |
| Toll-4 | DRSC03458 | 2.23e5 | 2.14e5 | 1.16e6 | 1.17e6 | inactive |
| CG30375 | DRSC06834 | 2.11e5 | 2.04e5 | 1.49e6 | 1.31e6 | inactive |
| CG3306 | DRSC10357 | 8.74e5 | 8.26e5 | 9.91e5 | 1.05e6 | inactive |
| CG2100 | DRSC12303 | 66807 | 1.28e5 | 5.95e5 | 6.99e5 | inactive |
| CG33509 | DRSC37778 | 8.06e5 | 7.11e5 | 2.35e6 | 1.78e6 | inactive |
| Msh6 | DRSC10759 | 1.82e5 | 2.26e5 | 1.69e6 | 1.32e6 | inactive |
| CG31104 | DRSC14658 | 2.33e5 | 3.46e5 | 2.09e6 | 2.20e6 | inactive |
| CG31104 | DRSC24390 | 4.82e5 | 4.69e5 | 5.39e5 | 7.98e5 | inactive |
| Mob3 (MOB kinase activator 3) | DRSC02791 | 2.14e5 | 2.68e5 | 1.49e6 | 1.96e6 | inactive |
| Mtch | DRSC08679 | 8.25e5 | 9.32e5 | 1.15e6 | 9.99e5 | inactive |
| Nepl15 (Neprilysin-like 15) | DRSC15630 | 64567 | 76904 | 5.32e5 | 5.26e5 | inactive |
| Or2a (Odorant receptor 2a) | DRSC18690 | 2.73e5 | 2.18e5 | 3.75e6 | 3.46e6 | inactive |
| Smyd4-3 (SET and MYND domain containing, class 4, member 3) | DRSC07041 | 1.11e6 | 7.95e5 | 2.00e6 | 1.04e6 | inactive |
| Smyd4-3 (SET and MYND domain containing, class 4, member 3) | DRSC28851 | 5.66e5 | 6.31e5 | 1.36e6 | 1.55e6 | inactive |
| CG31788 | DRSC01630 | 1.90e5 | 1.80e5 | 6.20e5 | 6.60e5 | inactive |
| CG10588 | DRSC11628 | 2.63e5 | 2.74e5 | 1.76e6 | 2.44e6 | inactive |

2 entries from above, reformatted.
Target gene | dsRNA | firefly reporter light, replicate 1 | firefly reporter light, replicate 2 | Renilla control light, replicate 1 | Renilla control light, replicate 2 | Outcome
Or2a (Odorant receptor 2a) | DRSC18690 | 2.73e5 | 2.18e5 | 3.75e6 | 3.46e6 | inactive
Smyd4-3 (SET and MYND domain containing, class 4, member 3) | DRSC07041 | 1.11e6 | 7.95e5 | 2.00e6 | 1.04e6 | inactive
